Data as given in publication PMC7823860, “Flavonoid Glycosides with a Triazole Moiety for Marine Antifouling Applications: Synthesis and Biological Activity Evaluation” (Marine Drugs, 2020).

System: Mytilus galloprovincialis plantigrade larvae
Test: Mussel (Mytilus galloprovincialis) larvae anti-settlement bioassay
Type: in vivo
Method: Mussel (Mytilus galloprovincialis) plantigrades were collected in juvenile aggregates during low neap tides at Memória beach, Matosinhos, Portugal (41°13′59″ N; 8°43′28″ W). In laboratory, mussel plantigrade larvae (0.5–2 mm) were isolated in a binocular magnifier (Olympus SZX2-ILLT, Tokyo, Japan) to a petri dish with filtered seawater, and those with functional foot and competent exploring behaviour were selected for the bioassays. The flavonoids were screened at 50 µM in 24-well microplates with 4 well replicates per condition and 5 larvae per well, for 15 h, in the darkness at 18 ± 1 °C, following Almeida et al. (2015). Test solutions were obtained by dilution of the compounds stock solutions (50 mM) in DMSO and prepared with filtered seawater. All bioassays included a negative control with DMSO and a positive control with CuSO4, a potent AF agent. After the exposure period, the anti-settlement activity was determined by the presence/absence of attached byssal threads produced by each individual larvae.
All compounds that caused more than 60% of settlement inhibition (≤40% of settlement) in the screening bioassay were considered active and selected for the determination of the semi-maximum response concentration that inhibited 50% of larval settlement (EC50), at compounds concentrations of 3.12, 6.25, 12.5, 25, 50, 100, 200 μM.
Datasets from anti-settlement, antibacterial and anti-microalgal bioassay, and determination of AChE and Tyr activities, were analysed by one-way analysis of variance (ANOVA) followed by a multi-comparisons Dunnett’s test against negative control (p < 0.05). For the AF bioassays, the half maximum response concentration (EC50) values for each compound, when applicable, were calculated using Probit regression analysis. Significance was considered at p < 0.01, and 95% lower and upper confidence limits (95%LCL; UCL). The software IBM SPSS Statistics 26 (Armonk, New York, USA) was used for statistical analysis.

SMILES	LC50/EC50 (therapeutic ratio)
COc1cc(-c2cc(=O)c3c(O)cc(O)cc3o2)cc(OC)c1OC [1b]	> 23.98
COc1ccc(-c2cc(=O)c3c(O)cc(OCc4cn(CCO[C@@H]5O[C@H](COC(C)=O)[C@@H](OC(C)=O)[C@H](OC(C)=O)[C@H]5OC(C)=O)nn4)cc3o2)cc1OC [4a, (2R,3R,4S,5R,6R)-2-(acetoxymethyl)-6-(2-(4-(((2-(3,4-dimethoxyphenyl)-5-hydroxy-4-oxo-4H-chromen-7-yl)oxy)methyl)-1H-1,2,3-triazol-1-yl)ethoxy)tetrahydro-2H-pyran-3,4,5-triyl triacetate]	> 4.70
COc1cc(-c2cc(=O)c3c(O)cc(OCc4cn(CCO[C@@H]5O[C@H](COC(C)=O)[C@@H](OC(C)=O)[C@H](OC(C)=O)[C@H]5OC(C)=O)nn4)cc3o2)cc(OC)c1OC [4b, (2R,3R,4S,5R,6R)-2-(acetoxymethyl)-6-(2-(4-(((5-hydroxy-4-oxo-2-(3,4,5-trimethoxyphenyl)-4H-chromen-7-yl)oxy)methyl)-1H-1,2,3-triazol-1-yl)ethoxy)tetrahydro-2H-pyran-3,4,5-triyl triacetate]	> 4.15
C#CCOc1ccc(C(=O)/C=C/c2ccc(OC)c(OC)c2)c(O)c1 [6a]	> 2.37
C#CCOc1ccc(C(=O)/C=C/c2cc(OC)c(OC)c(OC)c2)c(O)c1 [6b]	> 2.34
COc1cc(/C=C/C(=O)c2ccc(OCc3cn([C@@H]4O[C@H](COC(C)=O)[C@@H](OC(C)=O)[C@H](OC(C)=O)[C@H]4OC(C)=O)nn3)cc2O)cc(OC)c1OC [7b, (2R,3R,4S,5R,6R)-2-(acetoxymethyl)-6-(4-((3-hydroxy-4-((E)-3-(3,4,5-trimethoxyphenyl)acryloyl)phenoxy)methyl)-1H-1,2,3-triazol-1-yl)tetrahydro-2H-pyran-3,4,5-triyl triacetate]	> 60.98
COc1ccc(/C=C/C(=O)c2ccc(OCc3cn(CCO[C@@H]4O[C@H](COC(C)=O)[C@@H](OC(C)=O)[C@H](OC(C)=O)[C@H]4OC(C)=O)nn3)cc2O)cc1OC [8a, (2R,3R,4S,5R,6R)-2-(acetoxymethyl)-6-(2-(4-((4-((E)-3-(3,4-dimethoxyphenyl)acryloyl)-3-hydroxyphenoxy)methyl)-1H-1,2,3-triazol-1-yl)ethoxy)tetrahydro-2H-pyran-3,4,5-triyl triacetate]	> 5.58
COc1cc(/C=C/C(=O)c2ccc(OCc3cn(CCO[C@H]4O[C@H](COC(C)=O)[C@@H](OC(C)=O)[C@H](OC(C)=O)[C@@H]4OC(C)=O)nn3)cc2O)cc(OC)c1OC [8b, (2R,3R,4S,5S,6S)-2-(acetoxymethyl)-6-(2-(4-((3-hydroxy-4-((E)-3-(3,4,5-trimethoxyphenyl)acryloyl)phenoxy)methyl)-1H-1,2,3-triazol-1-yl)ethoxy)tetrahydro-2H-pyran-3,4,5-triyl triacetate]	> 3.71
COc1ccc(/C=C/C(=O)c2ccc(O)cc2O)cc1OC [11a]	> 11.05
COc1cc(/C=C/C(=O)c2ccc(O)cc2O)cc(OC)c1OC [11b]	> 20.75
